Laboratory results reported in PMC9503446, “Effects of Medicinal Leech-Related Cationic Antimicrobial Peptides on Human Blood Cells and Plasma” (Molecules, 2022).

Experiment: Turbidity (optical density at 800 nm) of diluted plasma
Design: species or system human
Details: peptide concentrations up to 200 μM

Substance | Aggregate formation (turbidity) in five-times diluted plasma
FLIGKAIKRKFCLRSVWNA [pept_7, synthetic short cationic antimicrobial peptide designed by bioinformatic analysis of the medicinal leech genome and microbiome] | did not cause significant aggregate formation
KFKKVIWKSFL-NH2 (C-terminus assumed) [pept_4] | did not cause significant aggregate formation
RAVIYKIPYNAIASRWIIAPKKC [pept_8, synthetic short cationic antimicrobial peptide designed by bioinformatic analysis of the medicinal leech genome and microbiome] | did not cause significant aggregate formation
RLKRFKRVALRREKTARNFRSIVS [pept_6, synthetic short cationic antimicrobial peptide designed by bioinformatic analysis of the medicinal leech genome and microbiome] | did not cause significant aggregate formation
RPILIRVRRIRVI-NH2 (C-terminus assumed) [pept_5] | did not cause significant aggregate formation

Some compounds share one wording; it may come from a single statement. No end group written: not given here.
